Amino acid sequences for entries named in this document (tags omitted). A change or cut given only in a name is not applied to a line headed by its entry.
UniProt P18054: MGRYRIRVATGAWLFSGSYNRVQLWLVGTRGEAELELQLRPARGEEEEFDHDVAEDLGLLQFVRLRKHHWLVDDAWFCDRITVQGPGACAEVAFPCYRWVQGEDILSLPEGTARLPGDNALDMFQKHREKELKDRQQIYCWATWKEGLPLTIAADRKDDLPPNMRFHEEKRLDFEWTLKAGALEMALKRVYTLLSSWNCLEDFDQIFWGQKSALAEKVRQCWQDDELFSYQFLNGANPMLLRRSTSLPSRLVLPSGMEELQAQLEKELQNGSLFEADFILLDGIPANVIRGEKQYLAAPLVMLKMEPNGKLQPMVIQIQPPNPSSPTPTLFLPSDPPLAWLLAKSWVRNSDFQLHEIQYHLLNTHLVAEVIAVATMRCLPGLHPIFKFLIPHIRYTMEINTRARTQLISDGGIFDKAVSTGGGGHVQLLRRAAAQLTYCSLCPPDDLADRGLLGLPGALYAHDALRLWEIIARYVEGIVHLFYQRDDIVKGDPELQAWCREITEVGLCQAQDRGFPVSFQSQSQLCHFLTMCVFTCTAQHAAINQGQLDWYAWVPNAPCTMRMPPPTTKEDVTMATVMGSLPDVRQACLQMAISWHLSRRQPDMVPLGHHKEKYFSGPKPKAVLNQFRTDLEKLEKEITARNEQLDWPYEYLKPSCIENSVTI

Several values for one entry are separate records, joined by “and”; a condition that tells them apart may be missing. Equal entries are not always repeated. Out of some 580,000 compounds screened, about 6,100 (1.1%) were called active. Inconclusive means that the source gave no clear call. Such entries were picked first, then a sample of the others. Calls come from the whole dose curve; as a rule, active = well fitted inhibition curve with a large enough effect; inconclusive = small, poorly fitted or top-dose-only effect, or another doubt; inactive = no such curve, though single readings can be large or run the other way. A potency beside an inconclusive call is a rough fit, not a confirmed value.
These molecules were tested against Polyunsaturated fatty acid lipoxygenase ALOX12 (Homo sapiens) (UniProt P18054) (assay: Primary qHTS assay for inhibitors of human arachidonate 12S-lipoxygenase (ALOX12): Round 2). Settings: purified 12hLO, xylenol orange hydroperoxide absorbance; series mostly up to 108 µM.
Outline: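 Purified human 12hLO (150 nM final) in 25 mM Hepes, 0.01% Triton X-100, pH 7.0 was preincubated 15 min at room temperature with compound. Then 40 uM arachidonic acid was added, 30 min. Hydroperoxide was read by Fe-XO absorbance ratio 573/405 nm.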
For `Cc1ccc(S(=O)(=O)NCCSCc2ccco2)cc1`, the Potency was inconclusive: 79.4 µM [inhibitor, partial curve, poor fit]. With `Cc1cc(C)c(C#N)c(SCC(=O)Nc2ccccc2C#N)n1` the Potency was “inactive”. For `CCNC(=O)C(C)NC(=O)CCNC(=O)N(C)Cc1ccccc1` (stereo not given), the Potency was “inactive”. With `O=C(NC1CCCCC1)c1ccccc1NC(=S)NC(=O)C1CCC1` the Potency was inconclusive: 70.8 µM [inhibitor, partial curve, poor fit]. In the case of `CCOc1cc(C(=O)Nc2cc(C)ccn2)cc(OCC)c1OCC`, the Potency is reported as “inactive”. For `COc1cccc(S(=O)(=O)NCc2ccc(C(=O)Nc3cccc(Cl)c3)cc2)c1`, the Potency was inconclusive: 0.316 µM [inhibitor, full curve, poor fit]. For `C/C(=N/Nc1ccc(S(N)(=O)=O)cc1[N+](=O)[O-])c1ccccc1F`, the Potency was “inactive”. With `COc1ccccc1-c1noc(-c2ccc(NCCc3ccccc3)c([N+](=O)[O-])c2)n1` the Potency was “inactive”. For `C=CCN(CC=C)Cc1ccc(OCc2ccccc2)c(OC)c1`, the Potency was “inactive”. In the case of `CS(=O)(=O)C1(C(=O)O)CCCC1`, the Potency is reported as “inactive”. In the case of `CCOc1ccc(C(C)NC(=O)c2cc(C)ccc2C)cc1OCC` (stereo not given), the Potency is reported as inconclusive: 112 µM [inhibitor, partial curve, poor fit]. For `Cc1cccc(/C=N/Nc2ccc([N+](=O)[O-])cc2)n1`, the Potency was inconclusive: 50.1 µM [inhibitor, partial curve]. In the case of `COc1ccc2[nH]c3c(c2c1)CCNC31CCN(Cc2ccc(F)c(F)c2)CC1`, the Potency is reported as inconclusive: 25.1 µM [inhibitor, full curve, poor fit]. With `CC(C)(C)OC(=O)NCC(=O)Oc1cc2oc(=O)cc(-c3ccccc3)c2cc1Cl` the Potency was inconclusive: 44.7 µM [inhibitor, partial curve, poor fit]. For `CC(C)c1ccc(CNCC2CCCO2)cc1` (stereo not given), the Potency was “inactive”. For `COc1ccc(OCCN2CCOCC2)cc1`, the Potency was inconclusive: 0.891 µM [inhibitor, full curve, poor fit]. For `CCc1cccc(NC(=O)COC(=O)c2c(C)nn(-c3ccccc3)c2C)c1`, the Potency was inconclusive: 89.1 µM [inhibitor, single point]. `CCCCn1c(N)c(N(Cc2ccccc2OC)C(=O)CN2C(=O)NC(C)(c3ccccc3)C2=O)c(=O)[nH]c1=O` (stereo not given) was tested, and the Potency was inconclusive: 50.1 µM [inhibitor, single point]. With `COc1ccc([N+](=O)[O-])cc1NC(=O)C1C2C=CC(C2)C1C(=O)O` (stereo not given) the Potency was inconclusive: 100 µM [inhibitor, partial curve, poor fit]. For `Oc1ccc(C[C@H]2CN([C@@H](Cc3ccccc3)CN3CCCC3CN3C(=S)NC[C@@H]3Cc3ccccc3)C(=S)N2CCc2ccccc2)cc1` (stereo not given in full), the Potency was inconclusive: 44.7 µM [inhibitor, partial curve, poor fit]. `C=CCSc1ccccc1NC(=O)c1cc(C)c(C)s1` was tested, and the Potency was inconclusive: 28.2 µM [inhibitor, partial curve, poor fit]. For `COc1ccc(/C=N/n2c(-c3cc(C)[nH]n3)n[nH]c2=S)cc1OC`, the Potency was inconclusive: 112 µM [inhibitor, partial curve, poor fit]. In the case of `CCN(CC)S(=O)(=O)N1CCCC(c2nncn2C)C1` (stereo not given), the Potency is reported as inconclusive: 141 µM [inhibitor, single point]. In the case of `COc1ccc2oc(-c3ccc(NC(=O)c4ccc(Br)o4)cc3)nc2c1`, the Potency is reported as inconclusive: 31.6 µM [inhibitor, partial curve, poor fit]. For `CC1=C(C(=O)Nc2ccc(Cl)cc2)C(c2ccncc2)C(C#N)=C(SCC(N)=O)N1` (stereo not given), the Potency was inconclusive: 39.8 µM [inhibitor, single point]. With `CCC(c1nnnn1CCOC)N(Cc1cc2c(C)cc(C)cc2[nH]c1=O)CC1CCCO1` (stereo not given) the Potency was inconclusive: 39.8 µM [inhibitor, partial curve, poor fit]. With `COc1ccc(N2CCN(C(CNS(=O)(=O)c3c(C)cc(C)cc3C)c3ccco3)CC2)cc1` (stereo not given) the Potency was inconclusive: 20 µM [inhibitor, partial curve, poor fit]. In the case of `CN1Cc2c(N3CCOCC3)nc3sc(C(=O)c4ccc(Br)cc4)c(N)c3c2CC1(C)C`, the Potency is reported as inconclusive: 31.6 µM [inhibitor, partial curve, poor fit]. With `N#CC1=C2SCN(Cc3ccco3)CN2C(=O)CC1c1c(F)cccc1Cl` (stereo not given) the Potency was inconclusive: 44.7 µM [inhibitor, partial curve, poor fit]. With `CCCOc1ccc(/C=C/C(=O)Nc2ccc([N+](=O)[O-])cc2)cc1` the Potency was “inactive”. `Cc1noc(C)c1-c1cc2cc(CN(C)C)oc2c(Nc2cccnc2)n1` was tested, and the Potency was “inactive”. With `COc1ccc(CCN(C)C(=O)C2CCCN(C3CCN(Cc4ccccc4)CC3)C2)cc1OC` (stereo not given) the Potency was active: 316 nM and inconclusive: 1.78 µM [inhibitor, full curve, poor fit]. `CCCC(O)(c1ccccc1)C(CN1CCOCC1)c1ccccc1` (stereo not given) was tested, and the Potency was inconclusive: 35.5 µM [inhibitor, partial curve, poor fit]. For `C#CCNC(=O)CSc1nc(-c2cccs2)nc2ccccc12`, the Potency was “inactive”. `Cc1ccccc1-c1ccc2ncnc(N(C)Cc3ccco3)c2c1` was tested, and the Potency was inconclusive: 20 µM [inhibitor, partial curve, poor fit]. `COc1ccc(C(=O)c2sc3nc(C)cc(-c4cccs4)c3c2N)cc1` was tested, and the Potency was “inactive”. In the case of `CC(=O)Oc1ccc2c(=O)c(-c3ccc(Cl)cc3)coc2c1`, the Potency is reported as “inactive”. `O=C(Nc1ccc(Cl)cc1)Nc1csc([N+](=O)[O-])c1` was tested, and the Potency was inconclusive: 44.7 µM [inhibitor, partial curve, poor fit]. For `O=NN(Cc1cccnc1)C(=O)NC1CCCCC1`, the Potency was inconclusive: 50.1 µM [inhibitor, partial curve, poor fit]. `COc1ccc(C(=O)NCCc2c[nH]c3ccccc23)cc1` was tested, and the Potency was inconclusive: 50.1 µM [inhibitor, partial curve, poor fit]. With `COc1ccc2sc(N(Cc3cccnc3)C(=O)c3ccco3)nc2c1` the Potency was inconclusive: 100 µM [inhibitor, partial curve, poor fit]. For `Cc1cc(NC(=O)CSc2sc3c(O)cc(=O)[nH]c3c2C#N)ccc1Br`, the Potency was inconclusive: 50.1 µM [inhibitor, partial curve, poor fit]. For `O=C1CN(C(=O)c2ccccc2)C(c2ccc(F)cc2)c2cc(Br)ccc2N1` (stereo not given), the Potency was inconclusive: 50.1 µM [inhibitor, partial curve, poor fit]. `COc1ccc(/C=N/n2cnc3c([nH]c4ccc(F)cc43)c2=O)cc1CSc1ccccn1` was tested, and the Potency was inconclusive: 7.08 µM [inhibitor, full curve, poor fit]. `O=C(NCC(F)(F)F)C1CCCC(C(=O)NCC(F)(F)F)C1` (stereo not given) was tested, and the Potency was “inactive”. `C=C1C(=O)C23C(O)C1CCC2C12COC3(O)C(O)C1C(C)(C)CCC2O` (stereo not given) was tested, and the Potency was “inactive”. With `c1ccc2c(CCc3ccncc3)cccc2c1` the Potency was “inactive”. `COC[C@@H]1CN(C(=O)Cc2c(F)cccc2Cl)C[C@H]1C(N)=O` was tested, and the Potency was “inactive”. In the case of `Cn1c(=O)c(-c2ccccc2)nc2cnc(N3CCNCC3)nc21`, the Potency is reported as inconclusive: 79.4 µM [inhibitor, partial curve, poor fit]. For `O=C1N=C(O)CN1/N=C/c1ccc(-c2ccc([N+](=O)[O-])cc2)o1`, the Potency was inconclusive: 35.5 µM [inhibitor, partial curve]. With `CCc1cc(CC)n(-c2nc3c(c(=O)n(CC(C)C)c(=O)n3C)n2CCOC)n1` the Potency was inconclusive: 25.1 µM [inhibitor, single point]. With `COc1ccc(Cc2nnc(NC(=O)c3c(-c4ccccc4)noc3C)s2)cc1` the Potency was “inactive”. With `O=C(CSc1nc(C2CC2)nc2ccccc12)NC1CCCC1` the Potency was inconclusive: 141 µM [inhibitor, single point]. For `COc1cccc(NC(=O)c2cnn(-c3ccccc3)c2C)c1`, the Potency was inconclusive: 89.1 µM [inhibitor, single point]. With `COc1ccc(N(CC(=O)Nc2cccc(SC)c2)S(C)(=O)=O)cc1` the Potency was inconclusive: 89.1 µM [inhibitor, single point]. With `S=C(NN=C1CCCCC1=NNC(=S)N1CCOCC1)N1CCOCC1` the Potency was inconclusive: 79.4 µM [inhibitor, partial curve, poor fit]. For `COc1cccc(CN2CCN(C3CCN(c4cccc(C)c4C)CC3)CC2CCO)c1` (stereo not given), the Potency was “inactive”. In the case of `Cc1ccccc1OCCN(C)C(=O)c1cc(C2CC2)nc2ccccc12`, the Potency is reported as inconclusive: 89.1 µM [inhibitor, partial curve, poor fit]. For `Cc1ccc(-c2nnc(C3CN(C(=O)c4cc(F)cc(F)c4)CC34CCOCC4)o2)cc1` (stereo not given), the Potency was “inactive”. For `CC(C)(C)S(=O)(=O)N1Cc2cc(CO)cc(CCO)c2[C@H]1CCO`, the Potency was inconclusive: 39.8 µM [inhibitor, partial curve, poor fit]. For `O=C(/C=C/Nc1cccc2ccccc12)C(F)(F)F`, the Potency was inconclusive: 44.7 µM [inhibitor, partial curve, poor fit]. In the case of `COc1ccc(N2CC(C(=O)Nc3nnc(SCC(=O)NC4CCCC4)s3)CC2=O)cc1` (stereo not given), the Potency is reported as inconclusive: 10 µM [inhibitor, full curve]. For `COc1cccc2sc(N(CCCN(C)C)C(=O)c3ccc(S(=O)(=O)N4CCCc5ccccc54)cc3)nc12`, the Potency was inconclusive: 70.8 µM [inhibitor, partial curve, poor fit]. `O=C(CSc1nc2ccccc2[nH]1)c1ccc2c(c1)OCO2` was tested, and the Potency was inconclusive: 31.6 µM [inhibitor, partial curve, poor fit]. `COc1cccc([C@H]2[C@@H](C(=O)O)c3ccccc3C(=O)N2Cc2ccc(F)cc2)c1` was tested, and the Potency was “inactive”.

Reference: PubChem BioAssay AID1671190 (National Center for Advancing Translational Sciences (NCATS), 2021)
Potency is the fitted concentration of half-maximal effect.
